PubChem BioAssay AID652243 | Drosophila RNAi Screening Center, 2013

Assay: 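Knock-downs that decrease or increase androgen receptor reporter signal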 (primary screen)
Cells: Drosophila S2R+ cells
Reagents: long dsRNA against Drosophila genes
Timing: 72 h (48 h, then 24 h hormone)
Challenge: synthetic androgen R1881 at 10 nM for 24 h
Measured: 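Per-well raw luminescence of the androgen-driven firefly reporter and of the Renilla control, two replicates each, without normalisation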
Scale: firefly reporter light: higher = more light from androgen-responsive reporter; Renilla control light: higher = more constitutive control signal (cell number, transfection)
Rule for the call: 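Hit when the log firefly-to-Renilla ratio dropped or increased by a fixed fold versus the mean of GFP or LacZ controls across duplicate plates; lowering cut given as 1.5 and as 3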
Calls: active = hit: reporter lowered or raised; inactive = no hit
The screen tested about 24,000 reagents; below is an unselected part of those with a known target gene and a result. Of all reagents, 246 (1%) are marked active. 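Plates not normalised; calls are printed but the firefly/Renilla ratio behind them is not deposited; fold cut for lowering reported inconsistently.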 Raw values vary from plate to plate and are shown uncorrected. Reagents against one gene are numbered here. The record does not give: the amount of reagent.

CG34043
- firefly reporter light, replicate 1: 1.22e6
- firefly reporter light, replicate 2: 1.04e6
- Renilla control light, replicate 1: 2.65e6
- Renilla control light, replicate 2: 2.79e6
- Outcome: inactive

ham #1
- firefly reporter light, replicate 1: 1.30e5
- firefly reporter light, replicate 2: 67898
- Renilla control light, replicate 1: 1.09e6
- Renilla control light, replicate 2: 1.06e6
- Outcome: inactive

ham #2
- firefly reporter light, replicate 1: 1.30e5
- firefly reporter light, replicate 2: 2.46e5
- Renilla control light, replicate 1: 1.02e6
- Renilla control light, replicate 2: 9.06e5
- Outcome: active

ham #3
- firefly reporter light, replicate 1: 1.80e5
- firefly reporter light, replicate 2: 1.93e5
- Renilla control light, replicate 1: 2.15e6
- Renilla control light, replicate 2: 2.53e6
- Outcome: inactive

ham #4
- firefly reporter light, replicate 1: 2.90e5
- firefly reporter light, replicate 2: 2.87e5
- Renilla control light, replicate 1: 6.68e5
- Renilla control light, replicate 2: 1.00e6
- Outcome: inactive

CG5002
- firefly reporter light, replicate 1: 5.08e5
- firefly reporter light, replicate 2: 3.40e5
- Renilla control light, replicate 1: 5.88e5
- Renilla control light, replicate 2: 4.92e5
- Outcome: inactive

glob3
- firefly reporter light, replicate 1: 41546
- firefly reporter light, replicate 2: 32991
- Renilla control light, replicate 1: 6.24e5
- Renilla control light, replicate 2: 7.62e5
- Outcome: inactive

Hsp110 #1
- firefly reporter light, replicate 1: 9.38e5
- firefly reporter light, replicate 2: 9.38e5
- Renilla control light, replicate 1: 1.15e6
- Renilla control light, replicate 2: 1.83e6
- Outcome: inactive

Hsp110 #2
- firefly reporter light, replicate 1: 2.58e5
- firefly reporter light, replicate 2: 2.58e5
- Renilla control light, replicate 1: 4.14e5
- Renilla control light, replicate 2: 4.52e5
- Outcome: inactive

Cpr60D
- firefly reporter light, replicate 1: 3.95e5
- firefly reporter light, replicate 2: 4.21e5
- Renilla control light, replicate 1: 1.99e6
- Renilla control light, replicate 2: 2.04e6
- Outcome: inactive

CG2964 #1
- Outcome: inactive

CG2964 #2
- firefly reporter light, replicate 1: 2.74e5
- firefly reporter light, replicate 2: 1.87e5
- Renilla control light, replicate 1: 6.15e5
- Renilla control light, replicate 2: 7.16e5
- Outcome: inactive

CG8312
- firefly reporter light, replicate 1: 87773
- firefly reporter light, replicate 2: 1.34e5
- Renilla control light, replicate 1: 1.53e6
- Renilla control light, replicate 2: 1.45e6
- Outcome: inactive

CG7408
- firefly reporter light, replicate 1: 1.60e5
- firefly reporter light, replicate 2: 2.11e5
- Renilla control light, replicate 1: 1.87e6
- Renilla control light, replicate 2: 1.98e6
- Outcome: inactive

CG14683
- firefly reporter light, replicate 1: 1.06e5
- firefly reporter light, replicate 2: 1.18e5
- Renilla control light, replicate 1: 1.05e6
- Renilla control light, replicate 2: 1.04e6
- Outcome: inactive

CG31689
- firefly reporter light, replicate 1: 4.32e5
- firefly reporter light, replicate 2: 6.29e5
- Renilla control light, replicate 1: 5.08e5
- Renilla control light, replicate 2: 6.82e5
- Outcome: inactive

arr #1
- firefly reporter light, replicate 1: 1.06e5
- firefly reporter light, replicate 2: 70632
- Renilla control light, replicate 1: 1.96e6
- Renilla control light, replicate 2: 1.96e6
- Outcome: inactive

arr #2
- firefly reporter light, replicate 1: 4.69e5
- firefly reporter light, replicate 2: 3.23e5
- Renilla control light, replicate 1: 7.39e5
- Renilla control light, replicate 2: 4.80e5
- Outcome: inactive

CG3473
- firefly reporter light, replicate 1: 2.71e5
- firefly reporter light, replicate 2: 3.04e5
- Renilla control light, replicate 1: 2.72e6
- Renilla control light, replicate 2: 3.18e6
- Outcome: inactive

Dcp-1
- firefly reporter light, replicate 1: 7.60e5
- firefly reporter light, replicate 2: 7.23e5
- Renilla control light, replicate 1: 2.01e6
- Renilla control light, replicate 2: 1.82e6
- Outcome: inactive

trio #1
- firefly reporter light, replicate 1: 83468
- firefly reporter light, replicate 2: 1.35e5
- Renilla control light, replicate 1: 1.48e5
- Renilla control light, replicate 2: 2.81e5
- Outcome: inactive

trio #2
- firefly reporter light, replicate 1: 30049
- firefly reporter light, replicate 2: 53157
- Renilla control light, replicate 1: 7.66e5
- Renilla control light, replicate 2: 9.89e5
- Outcome: active

trio #3
- firefly reporter light, replicate 1: 2.69e5
- firefly reporter light, replicate 2: 2.70e5
- Renilla control light, replicate 1: 8.18e5
- Renilla control light, replicate 2: 7.75e5
- Outcome: inactive

Taken from above:
Entry of glob3 under “Renilla control light, replicate 2”: 7.62e5
CG2964 #1, Outcome: inactive
